Results published in paper PMC3337622.
These are yes or no findings as the source states them, for the method shown. Some results given as binding are weak or reduced against the parent protein; the word gives no strength. Tags and fused reporters may be left off the sequences shown.

T1: MST1 (mammalian sterile 20-like kinase 1), Gal4 DNA-binding domain fusion in pGBKT7 (human) (UniProt Q13043)
T1 sequence: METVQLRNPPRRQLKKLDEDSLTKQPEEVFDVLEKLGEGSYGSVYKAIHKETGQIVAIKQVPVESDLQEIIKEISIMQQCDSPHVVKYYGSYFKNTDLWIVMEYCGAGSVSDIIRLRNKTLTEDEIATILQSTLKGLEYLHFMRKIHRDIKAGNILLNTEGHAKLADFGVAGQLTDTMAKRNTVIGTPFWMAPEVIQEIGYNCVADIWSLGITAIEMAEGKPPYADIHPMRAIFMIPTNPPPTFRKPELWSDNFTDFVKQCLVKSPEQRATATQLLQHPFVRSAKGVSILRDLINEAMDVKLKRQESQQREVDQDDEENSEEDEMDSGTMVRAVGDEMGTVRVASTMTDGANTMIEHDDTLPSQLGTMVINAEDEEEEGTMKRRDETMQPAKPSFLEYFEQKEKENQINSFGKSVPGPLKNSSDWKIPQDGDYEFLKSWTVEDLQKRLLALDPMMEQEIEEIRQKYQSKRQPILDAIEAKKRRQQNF

T2: MST2 (mammalian sterile 20-like kinase 2), Gal4 DNA-binding domain fusion in pGBKT7 (human) (UniProt Q13188)
T2 sequence: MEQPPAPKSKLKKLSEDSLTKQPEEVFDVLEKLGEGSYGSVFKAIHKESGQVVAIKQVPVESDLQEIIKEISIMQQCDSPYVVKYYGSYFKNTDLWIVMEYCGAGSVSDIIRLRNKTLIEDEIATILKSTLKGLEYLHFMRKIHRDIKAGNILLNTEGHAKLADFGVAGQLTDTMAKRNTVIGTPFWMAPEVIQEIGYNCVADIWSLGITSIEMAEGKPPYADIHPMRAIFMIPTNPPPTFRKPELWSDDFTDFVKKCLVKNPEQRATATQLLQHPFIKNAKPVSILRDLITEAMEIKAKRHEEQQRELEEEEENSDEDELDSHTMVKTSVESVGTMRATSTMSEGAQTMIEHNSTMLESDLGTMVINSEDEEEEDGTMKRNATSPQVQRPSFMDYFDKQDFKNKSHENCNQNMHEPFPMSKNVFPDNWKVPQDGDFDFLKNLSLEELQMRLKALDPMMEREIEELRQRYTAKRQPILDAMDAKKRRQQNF


Key:
[1] = molecular target: T1, MST1 (mammalian sterile 20-like kinase 1), Gal4 DNA-binding domain fusion in pGBKT7 (human); assay: two-hybrid; Matchmaker system, yeast strain PJ69-4A cotransformed; growth on SD minimal medium without adenine and histidine; beta-galactosidase reporter quantified with ONPG at 420 nm
[2] = molecular target: T2, MST2 (mammalian sterile 20-like kinase 2), Gal4 DNA-binding domain fusion in pGBKT7 (human); assay: as above

binding [1]	binding [2]	Binder
no binding	no binding	RASSF1AΔSARAH, Gal4 activation domain fusion in pGADT7 (protein, UniProt Q9NS23-2) MSGEPELIELRELAPAGRAGKGRTRLERANALRIARGTACNPTRQLVPGRGHRFQPAGPATHTWCDLCGDFIWGVVRKGLQCAHCKFTCHYRCRALVCLDCCGPRDLGWEPAVERDTNVDEPVEWETPDLSQAEIEQKIKEYNAQINSNLFMSLNKDGSYTGFIKVQLKLVRPVSVPSSKKPPSLQDARRGPGRGTSVRRRTSFYLPKDAVKHLHVLSRTRAREVIEALLRKFLVVDDPRKFALFERAERHGQVYLRKLLDDEQPLRLRLLAGPSDKALSFVLKENDSGPLG
binds	binds	RASSF1A (Ras association domain family 1A), Gal4 activation domain fusion in pGADT7 (protein, UniProt Q9NS23-2 1-340) MSGEPELIELRELAPAGRAGKGRTRLERANALRIARGTACNPTRQLVPGRGHRFQPAGPATHTWCDLCGDFIWGVVRKGLQCAHCKFTCHYRCRALVCLDCCGPRDLGWEPAVERDTNVDEPVEWETPDLSQAEIEQKIKEYNAQINSNLFMSLNKDGSYTGFIKVQLKLVRPVSVPSSKKPPSLQDARRGPGRGTSVRRRTSFYLPKDAVKHLHVLSRTRAREVIEALLRKFLVVDDPRKFALFERAERHGQVYLRKLLDDEQPLRLRLLAGPSDKALSFVLKENDSGEVNWDAFSMPELHNFLRILQREEEEHLRQILQKYSYCRQKIQEALHACPLG
